Measurements taken from paper PMC10763971.
These are yes or no findings as the source states them, for the method shown.

Sequences of proteins named here, by UniProt entry; tags and fusion partners are left off. Residues count along the entry.
UniProt Q4WER9, residues 20-378: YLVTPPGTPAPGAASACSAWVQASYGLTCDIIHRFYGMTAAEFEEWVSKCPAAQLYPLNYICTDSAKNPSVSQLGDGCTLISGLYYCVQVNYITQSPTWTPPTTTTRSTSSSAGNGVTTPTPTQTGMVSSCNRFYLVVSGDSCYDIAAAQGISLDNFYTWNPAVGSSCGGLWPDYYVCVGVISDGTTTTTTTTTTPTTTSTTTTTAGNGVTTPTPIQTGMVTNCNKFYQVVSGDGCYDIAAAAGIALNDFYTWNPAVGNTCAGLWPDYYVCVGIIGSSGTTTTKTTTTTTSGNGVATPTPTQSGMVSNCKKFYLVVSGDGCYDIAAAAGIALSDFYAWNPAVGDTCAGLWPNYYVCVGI

Molecular target: recombinant Aspergillus fumigatus LysM domain protein A (LdpA) expressed in Pichia pastoris (Aspergillus fumigatus) (UniProt Q4WER9)
Assay: flow cytometry on beads; rLdpA (20 μg) held on 1 mg Dynabeads (His-Tag Isolation & Pulldown kit); incubated with FITC-labeled lectin (20 μg); lectin bound to rLdpA measured by flow cytometry; both purified

B1: fluorescein isothiocyanate (FITC)-labeled peanut agglutinin (protein, UniProt P02872 24-273)
chain: AETVSFNFNSFSEGNPAINFQGDVTVLSNGNIQLTNLNKVNSVGRVLYAMPVRIWSSATGNVASFLTSFSFEMKDIKDYDPADGIIFFIAPEDTQIPAGSIGGGTLGVSDTKGAGHFVGVEFDTYSNSEYNDPPTDHVGIDVNSVDSVKTVPWNSVSGAVVKVTVIYDSSTKTLSVAVTNDNGDITTIAQVVDLKAKLPERVKFGFSASGSLGGRQIHLIRSWSFTSTLITTTRRSIDNNEKKIMNMASA
modifications: FITC label (site not stated)
- binding: no binding (tested: 20 μg of lectin)
